Measured values taken from the supplement of paper PMC8166895.
“And” between values parts separate entries of the source, which are not always exact repeats. Identical values can stand only once. Counter-ions that a name gives are not always drawn. The list shows a part of the results. Most values lie at the level of the controls, where differences are scatter.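 Melting temperature was read by differential scanning fluorimetry in a single-replicate pilot screen of a library of approved drugs and clinical or known-target compounds. Compounds raising the melting point by at least 2 °C were the top stabilizing hits, and negative shifts mean destabilization.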 Where a SMILES comes first, the peptide text is derived from it. [ ]: non-standard residue; d: D form. pGlu = O=C1CC[C@@H](C(=O)O)N1; Thz = O=C(O)[C@@H]1CSCN1

system: SARS-CoV-2 main protease (Mpro, nsp5); assay: thermal shift ΔTm of Mpro relative to plate average Tm; higher = stronger thermal stabilization of Mpro (binding); conditions: 10 µM; protein concentration 1 µM

Structure (SMILES)	thermal shift ΔTm of Mpro
CN(C)S(=O)(=O)c1ccc2c(c1)/C(=C/c1cc3c([nH]1)CCCC3)C(=O)N2	0.0681 °C
Clc1cccc(Cl)c1NC1=NCCN1 [Clonidine HCl]	-0.0379 °C
C[C@]12C=CC(=O)N[C@@H]1CC[C@@H]1[C@@H]2CC[C@]2(C)[C@@H](C(=O)Nc3cc(C(F)(F)F)ccc3C(F)(F)F)CC[C@@H]12 [Dutasteride]	-0.144 °C
O=C1[C@H]2CCCC[C@H]2C(=O)N1CCCCN1CCN(c2nsc3ccccc23)CC1 [Perospirone]	-0.118 °C
CN(C)[C@@H]1C(=O)C(C(N)=O)=C(O)[C@@]2(O)C(=O)C3=C(O)c4c(O)cccc4[C@@](C)(O)[C@H]3C[C@@H]12 [Tetracycline]	-0.0392 °C
CN(C)[C@@H]1C(=O)C(C(N)=O)=C(O)[C@@]2(O)C(=O)C3=C(O)c4c(O)cccc4[C@@](C)(O)[C@H]3C[C@@H]12 [Tetracycline HCl]	-0.0728 °C
CCCCCCCCCCCCCCCC(=O)OC[C@H](O)[C@H]1OC(=O)C(O)=C1O [L-Ascorbyl 6-palmitate]	0.169 °C
Nc1nc2c(ncn2COC(CO)CO)c(=O)[nH]1 [Ganciclovir]	0.0289 °C
CC(NC(C)(C)C)C(=O)c1cccc(Cl)c1 (configuration not stated) [Amfebutamone HCl]	-0.0029 °C
Cc1csc(-c2nnc(Nc3ccc(Oc4ncccc4-c4ccnc(N)n4)cc3)c3ccccc23)c1	0.0142 °C
NCCCCCC(=O)O [(6-)ε-Aminocaproic acid]	-0.202 °C
c1ccc2c(CCNc3ccc(Nc4ccncc4)cc3)c[nH]c2c1	-0.157 °C
NCc1cccnc1 [Picolamine]	0.384 °C
COc1ccc2c(Oc3ccc(NC(=O)c4c(C)n(CC(C)(C)O)n(-c5ccccc5)c4=O)nc3)ccnc2c1	-0.166 °C
COc1c(C)cnc(Cn2cnc3c(Cl)nc(N)nc32)c1C	0.0972 °C
CC=CC(=O)N(CC)c1ccccc1C [Crotamiton]	0.284 °C
CC(C)Oc1ccc(-c2cnc3c(-c4ccnc5ccccc45)cnn3c2)cc1	-0.301 °C
Cc1nc2c([nH]1)-c1ccccc1N(C(=O)c1ccc(NC(=O)c3ccccc3-c3ccccc3)cc1)CC2 [Conivaptan HCl]	0.217 °C
CNCCc1ccccn1 [Betahistine 2HCl]	0.15 °C
CNCCc1ccccn1 [Betahistine]	0.099 °C
CNCCc1ccccn1 [Betahistine mesylate]	0.305 °C

Structure (SMILES)	thermal shift ΔTm of Mpro
CC1=C(C)C(=O)C(C(CCCCCC(=O)O)c2ccccc2)=C(C)C1=O (configuration not stated) [Seratrodast]	0.139 °C
COc1ccc(COc2ccc(CC#N)cc2)cc1	-0.0133 °C
C[C@H]1CO[C@@H]2Cn3cc(C(=O)NCc4ccc(F)cc4F)c(=O)c(O)c3C(=O)N12	-0.0673 °C
O=C(c1c(F)ccc(NS(=O)(=O)N2CC[C@@H](F)C2)c1F)c1c[nH]c2ncc(-c3cnc(C4CC4)nc3)cc12	-0.0224 °C
OC(c1cc(-c2ccc(Cl)cc2)nc2ccccc12)C1CCCCN1 (configuration not stated) [Vacquinol-1]	0.084 °C
Cc1nc2c(-c3cnc(N)nc3)nc(N3CCOCC3)nc2n1C(C)C	-0.153 °C
Nc1nccc(Oc2ccc(NC(=O)c3c[nH]cc(-c4ccc(F)cc4)c3=O)cc2F)c1Cl	-0.0122 °C
C[C@H]1[C@H](C)CC[C@]2(C(=O)O)CC[C@]3(C)C(=CC[C@@H]4[C@@]5(C)CC[C@H](O)C(C)(C)[C@@H]5CC[C@]43C)[C@H]12 [Ursolic Acid]	0.452 °C
O=C(c1ccc(F)cc1)C1CCN(CCn2c(=O)[nH]c3ccccc3c2=O)CC1 [Ketanserin]	0.274 °C
Oc1ccc2c(c1)OC[C@H]1c3cc4c(cc3O[C@@H]21)OCO4 [Maackiain]	0.0119 °C
NC(=O)Nc1cc(-c2cccc(F)c2)sc1C(=O)N[C@H]1CCCNC1	-0.138 °C
COCCNC(=O)Nc1ccc2nc(-c3cccs3)c(-c3cccs3)nc2c1 [Ac-CoA Synthase Inhibitor1]	-0.213 °C
Cc1[nH]cnc1CN1CCc2c(c3ccccc3n2C)C1=O [Alosetron hydrochloride]	0.384 °C
O=S(=O)(c1cccc2c(O)nccc12)N1CCCNCC1 [Hydroxyfasudil Hydrochloride]	-0.0858 °C
O=C(O)CCc1ccc(NCc2cccc(Oc3ccccc3)c2)cc1	-0.0918 °C
CC(C)(C)c1cc(C=C(C#N)C#N)cc(Br)c1O	0.765 °C
COc1cc(C(C)C)c(Oc2cnc(N)nc2N)cc1I	0.515 °C
COC1=C(C)C(=O)O/C1=C1\O[C@@H]2CCCN3[C@@H](CC[C@H]3[C@@H]3C[C@H](C)C(=O)O3)[C@H]2[C@@H]1C [Protostemonine]	-0.0798 °C
CC(=O)O[C@H]1CC[C@H]2[C@@H]3CCC4=CC(=O)CCC4=C3C=C[C@]12C [Trenbolone acetate]	0.0185 °C
NCC(CC(=O)O)c1ccc(Cl)cc1 (configuration not stated) [Baclofen]	0.0856 °C
CCS(=O)(=O)N1CC(CC#N)(n2cc(-c3ncnc4[nH]ccc34)cn2)C1	-0.13 °C

Structure (SMILES)	thermal shift ΔTm of Mpro
CCS(=O)(=O)N1CC(CC#N)(n2cc(-c3ncnc4[nH]ccc34)cn2)C1 [Baricitinib Phosphate]	0.387 °C
CN(C)CCOC(c1ccccc1)c1ccccc1.Cn1c(=O)c2[nH]c(Cl)nc2n(C)c1=O [Dimenhydrinate]	0.0934 °C
CCOC(=O)CC(SP(=S)(OC)OC)C(=O)OCC (configuration not stated) [Malathion]	0.0513 °C
Clc1ccc2c(c1)CCc1cccnc1C2=C1CCNCC1 [Desloratadine]	0.0946 °C
CC(C)[C@]12O[C@H]1[C@@H]1O[C@]13[C@]1(O[C@H]1C[C@H]1C4=C(CC[C@@]13C)C(=O)OC4)[C@@H]2O [Triptolide (PG490)]	0.0143 °C
O=C1NCC2(CCN(CCc3ccccc3)CC2)O1 [Fenspiride HCl]	-0.114 °C
Cc1cc(C)c(S(=O)(=O)N(CCc2cccc(Br)c2)Cc2ccc(-c3cccc(S(C)(=O)=O)c3)cc2)c(C)c1	-0.16 °C
Nc1nc(NCCNc2ncc(-n3ccnc3)c(-c3ccc(Cl)cc3Cl)n2)ccc1[N+](=O)[O-]	-0.0089 °C
NC(=O)c1cc([N+](=O)[O-])cc([N+](=O)[O-])c1 [Nitromide]	0.265 °C
CC1OC2(CS1)CN1CCC2CC1 (configuration not stated) [Cevimeline hydrochloride hemihydrate]	0.134 °C
CCOc1nc2cccc(C(=O)O)c2n1Cc1ccc(-c2ccccc2-c2nnn[nH]2)cc1 [Candesartan]	-0.121 °C
COc1ccc2c(c1O)-c1c(OC)c(OC)cc3c1[C@H](C2)N(C)CC3 [(+)-Isocorydine hydrochloride]	-0.0786 °C
COc1ccc2c(c1O)-c1c(OC)c(OC)cc3c1[C@H](C2)N(C)CC3 [S-Isocorydine(+)]	-0.0444 °C
C[C@@](Cc1ccc(O)c(O)c1)(NN)C(=O)O [Carbidopa Hydrate]	-0.115 °C
C[C@@](Cc1ccc(O)c(O)c1)(NN)C(=O)O [Carbidopa]	-0.66 °C
O=C(Oc1cccc(F)c1OC(=O)c1cccc(O)c1)c1cccc(O)c1	0.138 °C
C=CC(=O)Nc1cccc(Oc2nc(Nc3ccc(N4CCN(C)CC4)cc3)ncc2Cl)c1	0.551 °C
CC1CCN(CC[C@H]2CCCN2S(=O)(=O)c2cccc(O)c2)CC1	-0.182 °C
Nc1ncnc2c1ncn2[C@@H]1O[C@H](CO)[C@@H](O)[C@@H]1O [Vidarabine]	0.0231 °C
Cc1noc(-c2ccc(-c3ccc(C4(C(=O)O)CC4)cc3)cc2)c1NC(=O)O[C@H](C)c1ccccc1	0.0427 °C
COc1cn(-c2ccc(-n3cccn3)cc2F)nc(-c2ccnn2-c2ccccc2)c1=O	0.161 °C

Structure (SMILES)	thermal shift ΔTm of Mpro
CCCCC(CC)COC(=O)CC(C(=O)OCC(CC)CCCC)S(=O)(=O)O (configuration not stated) [Docusate sodium]	-0.267 °C
O=C1CC[C@@]2(O)[C@H]3Cc4ccc(O)c5c4[C@@]2(CCN3CC2CC2)[C@H]1O5 [Naltrexone HCl]	0.234 °C
CC(C)=CC(=O)CCC(=O)N1CCN(Cc2cc3nc(-c4cccc5[nH]ncc45)nc(N4CCOCC4)c3s2)CC1	-0.276 °C
COc1cc(Nc2c(C#N)cnc3cc(OCCCN4CCN(C)CC4)c(OC)cc23)c(Cl)cc1Cl [Bosutinib (SKI-606)]	0.35 °C
COc1ccc(C(c2c[nH]c3ccccc23)c2c[nH]c3ccccc23)cc1	-0.00109 °C
CCCCc1oc2ccc(NS(C)(=O)=O)cc2c1C(=O)c1ccc(OCCCN(CCCC)CCCC)cc1 [Dronedarone HCl]	-0.00689 °C
CCC1(c2ccccc2)C(=O)NCNC1=O [Primidone]	0.176 °C
CCCNC(=O)c1cn2ncnc(Nc3cc(C(=O)NC4CC4)ccc3C)c2c1C	-0.102 °C
COC(=O)C1=C(C)NC(C)=C(C(=O)OC(C)(C)CN(C)CCC(c2ccccc2)c2ccccc2)C1c1cccc([N+](=O)[O-])c1 (configuration not stated) [Lercanidipine]	0.298 °C
O=C(Nc1cccnc1)c1cc(-c2ccnc(F)c2)ccc1OCc1ccccc1	-0.259 °C
COc1ccc(Cl)cc1NC(=O)Nc1cc(C)nc2ccccc12	0.328 °C
COc1ccc(Cl)cc1NC(=O)Nc1cc(C)nc2ccccc12 [PQ401 hydrochloride]	0.254 °C
CN(C)CCC(c1ccc(Br)cc1)c1ccccn1 (configuration not stated) [Brompheniramine hydrogen maleate]	-0.0979 °C
COc1cc2ncnc(Nc3cccc(Br)c3)c2cc1OC	0.0694 °C and -0.00609 °C
O=c1[nH]c2ccccc2n1CCN1CCN(c2cccc(C(F)(F)F)c2)CC1 [Flibanserin]	-0.0381 °C
COc1cc2ncnc(Nc3cccc(Cl)c3F)c2cc1OC(=O)N1CCN(C)C[C@H]1C [AZD3759 hydrochloride]	-0.0571 °C
Oc1c(Cl)cc(Cl)c2cccnc12 [Chloroxine]	0.0476 °C
c1ccc(-c2ccc(C(c3ccccc3)n3ccnc3)cc2)cc1 (configuration not stated) [Bifonazole]	-0.254 °C
O=C1CC[C@@H](C(=O)N2CSC[C@H]2C(=O)O)N1 [Pidotimod] ([pGlu]-[Thz]-OH)	0.0879 °C
